# “And” between values parts separate entries of the source, which are not always exact repeats. Equal values may be shown once. Among all 360,000 compounds or so, about 10,000 (2.8%) were called active. The shares of active, inactive and inconclusive entries below differ from those in the screen. The call rests on the fitted dose curve; in most records, active means well fitted inhibition curve with a large enough effect; inconclusive means small, poorly fitted or top-dose-only effect; inactive means flat fitted curve, though single readings scatter. Potencies of inconclusive entries are doubtful fits and often do not repeat.
# The chains behind the UniProt entries cited, without tags or fusion partners.
# UniProt P53350, whole entry, looked up: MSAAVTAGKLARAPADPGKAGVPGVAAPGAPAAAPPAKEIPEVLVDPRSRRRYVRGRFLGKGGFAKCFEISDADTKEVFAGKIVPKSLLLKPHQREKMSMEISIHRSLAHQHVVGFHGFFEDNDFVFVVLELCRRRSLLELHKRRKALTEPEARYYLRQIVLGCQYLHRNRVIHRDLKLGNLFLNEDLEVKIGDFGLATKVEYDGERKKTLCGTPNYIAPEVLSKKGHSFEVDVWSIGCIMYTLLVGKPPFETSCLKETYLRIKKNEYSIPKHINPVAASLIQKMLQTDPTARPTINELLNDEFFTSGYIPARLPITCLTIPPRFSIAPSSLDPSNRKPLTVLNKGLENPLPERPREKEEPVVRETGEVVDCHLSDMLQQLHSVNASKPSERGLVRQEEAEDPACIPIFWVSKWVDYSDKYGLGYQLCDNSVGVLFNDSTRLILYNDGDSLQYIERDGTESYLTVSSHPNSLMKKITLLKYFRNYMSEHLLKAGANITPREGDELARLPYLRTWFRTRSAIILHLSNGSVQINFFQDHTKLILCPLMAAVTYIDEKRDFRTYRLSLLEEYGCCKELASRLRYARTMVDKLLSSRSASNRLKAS
# Target: Serine/threonine-protein kinase PLK1 (Homo sapiens) (UniProt P53350)
# Experiment: qHTS for Inhibitors of PLK1-PDB (polo-like kinase 1 - polo-box domain): Primary Screen; further: nearly all actives have a fitted effect of over 65% in size; on max response, negative = inhibition: series mostly up to about 57 µM
# Conditions: Plk1 PBD binding of FITC phosphopeptide, fluorescence polarization
# On the % scale 0 is the no-effect control and ±100 the full control effect; potency means the concentration at half of the fitted maximal effect.
SMILES,Potency,"max response, negative = inhibition"
Cc1ccc(CN(CC2CCCO2)C(=O)CN2C(=O)C(C(C)C)Oc3ccccc32)o1 (stereo not given),"inconclusive: 29.9 µM [inhibitor, single point]",
Cc1ccc(NC2CCCN(C(=O)c3cnc4ccccn4c3=O)C2)cc1C (stereo not given),"inconclusive: 29.9 µM [inhibitor, single point]",
Cc1nc(-c2ccc(S(=O)(=O)N3CCN(C4c5ccccc5-c5ccccc54)CC3)s2)cs1,,inactive: -3.08%
Cc1cc[n+](-c2[nH]c(=O)sc2/C=N/N=C(\[O-])c2ccncc2)cc1,,inactive: -6.22%
Cc1ccccc1-n1c(C)n[nH]c1=S,,inactive: -27.3%
Cc1ccc2c(C)c(C(=O)N(C)CCC3CCCCO3)oc2c1C (stereo not given),"inconclusive: 23.8 µM [inhibitor, single point]",
Cc1ccccc1NC(=O)CSC(=O)c1ccccc1,active: 10.6 µM,
O=C(CCNS(=O)(=O)c1ccc2[nH]c(=O)oc2c1)NCc1ccccc1,"inconclusive: 5.32 µM [inhibitor, single point]",
Cc1cc(C)c(NC(=O)Cn2nc(-c3ccccc3)nc2-c2ccccc2)c(C)c1,"inconclusive: 33.6 µM [inhibitor, partial curve]",
Cc1cccc(OC(C)C(=O)Nc2ccc3c(c2)OCCO3)c1 (stereo not given),"inconclusive: 37.7 µM [inhibitor, single point]",
CCCC[C@@H]1Cc2[nH][nH]c(=O)c2[C@H](c2ccc(C(C)C)cc2)O1,active: 9.47 µM,
CCCc1cc(=O)[nH]c(SCC(=O)Nc2nc(-c3ccccc3)cs2)n1,"inconclusive: 33.6 µM [inhibitor, single point]",
COc1ccc(C(=S)Nc2ccc(C)cc2)cc1,active: 21.2 µM,
O=C(Cn1cnc2cc([N+](=O)[O-])ccc2c1=O)Nc1ccc2c(c1)OCO2,,inactive: 1.55%
Cc1cccc(C(=O)NNC2=C(C(=O)C(F)(F)F)CCC2)c1O,"inconclusive: 23.8 µM [inhibitor, single point]",
Nc1nnc2cc(F)ccc2n1,,inactive: -2.3%
CCn1c2nc(SCCN3CCOCC3)nnc2c2cc(C)cc(C)c21,"inconclusive: 23.8 µM [inhibitor, partial curve]",
O=C(c1ccc(S(=O)(=O)NCC2CCCO2)cc1)N1CCN(c2cccc(Cl)c2)CC1 (stereo not given),,inactive: -16.5%
CC1(C)CCC(C)(C)NC(=S)N1,,inactive: 1.71% and inactive: 4.94%
O=C(N/N=C/c1ccccn1)c1ccc(Cl)cc1,,inactive: -2.01%
CCN(CC)C(=O)C(C(=O)c1cccc([N+](=O)[O-])c1)n1cc(Cl)ccc1=O (stereo not given),,inactive: -9.89%
COc1ccccc1CN1CC(C(=O)NCc2nccn2C)CCC1=O (stereo not given),"inconclusive: 26.7 µM [inhibitor, partial curve]",
COc1cc(NC(=O)c2c(F)cccc2F)c(Cl)cc1Cl,,inconclusive: -33.4% [inhibitor]
COc1ccc(NC(=O)Cn2cnc3sc(C)c(S(=O)(=O)N4CCN(C)CC4)c3c2=O)cc1OC,"inconclusive: 23.8 µM [inhibitor, partial curve]",
O=C(/C=C/c1ccc(OCCCF)cc1)Nc1ccnc(-c2cccnc2)n1,,inactive: 13%

SMILES,Potency,"max response, negative = inhibition"
COc1ccc(NC(=O)/C(C#N)=C/c2ccc(-c3ccccc3C(=O)O)o2)cc1,,inactive: 2.33%
O=C(Cc1cccs1)Nc1nnc(-c2ccncc2)s1,,inactive: -8.21%
CC1=NNC(=O)C1C(c1ccccc1)C(C#N)C#N (stereo not given),"inconclusive: 26.7 µM [inhibitor, single point]",
CCO/N=C(/C)c1c(O)cc(-c2ccccc2)n(-c2ccccc2)c1=O,"inconclusive: 26.7 µM [inhibitor, single point]",
CC(c1nc2ccccc2c(=O)[nH]1)N1CCN(C)CC1 (stereo not given),"inconclusive: 26.7 µM [inhibitor, partial curve]",
Cc1cccc(NC(=S)N(CCN2CCOCC2)Cc2cc3cc4c(cc3[nH]c2=O)OCO4)c1,,inactive: -8.45%
CCCCN(CC)C(=O)c1oc2ccc(S(=O)(=O)N3CCCC3)cc2c1C,active: 29.9 µM,
CCCc1ccc2oc(C(=O)N(Cc3nccn3C)C(C)C)c(C)c2c1,,inactive: -5.52%
COCCn1c(SCC(=O)c2ccc3c(c2)OCCO3)nnc1C(C)C,,inactive: 0%
O=c1c2cc(F)ccc2sn1-c1ccccc1Cl,active: 2.67 µM,
S=c1nc[nH]c2c1ncn2-c1ccc(Cl)cc1,active: 5.97 µM,
N#Cc1ccccc1NC(=S)NC(=O)c1cccnc1,active: 11.9 µM,
Cc1ccc(-n2c(O)c(/C=N/c3ncn[nH]3)c3ccccc3c2=O)cc1,,inactive: -7.64%
O=C(O)C(=O)/C(=C\c1cccc2ccccc12)c1ccc2ccccc2n1,active: 67 µM,
CCOc1cc(C(=S)N2CCOCC2)ccc1OC(=O)c1ccccc1,"inconclusive: 26.7 µM [inhibitor, partial curve]",
S=C(Nc1cc(Cl)ccc1Cl)Nn1cnnc1,active: 21.2 µM,
Cc1ccc(S(=O)(=O)N/N=C/c2ccccc2F)cc1[N+](=O)[O-],"inconclusive: 16.8 µM [inhibitor, partial curve]",
CCN=C1S/C(=C/c2ccc(-c3ccc(Cl)cc3C(=O)O)o2)C(=O)N1CC,"inconclusive: 29.9 µM [inhibitor, single point]",
CCc1ccc(-c2nc3ccc(Br)cc3c(C(=O)O)c2C)s1,"inconclusive: 21.2 µM [inhibitor, single point]",
O=C(Nc1nnc(-c2ccco2)o1)C1CCCCC1,,inactive: -4.46%
COP(=O)(OC)c1ccc(NCc2cc(O)ccc2O)cc1,"inconclusive: 26.7 µM [inhibitor, single point]",
O=S(=O)(Nc1ccc(Cl)cc1NS(=O)(=O)c1ccccc1)c1ccccc1,,inconclusive: -31.8% [inhibitor]
Cc1ccc(Cn2c(SCC(=O)Nc3cc(C)on3)nc3ccccc3c2=O)cc1,"inconclusive: 21.2 µM [inhibitor, partial curve]",
COc1cc(/C=C(/C#N)C(=O)Nc2ccc(Cl)cc2)ccc1Oc1nc(Cl)ncc1F,"inconclusive: 8.44 µM [inhibitor, single point]",
COc1ccccc1OC(C)C(=O)N1CCC(Cc2ccccc2)CC1 (stereo not given),,inactive: -18.4%

SMILES,Potency,"max response, negative = inhibition"
O=C1N(c2ccccc2C(F)(F)F)O[C@@]1(c1ccccc1)C1CCCCC1,,inactive: -11.7%
C/C(=N/N1CCN(c2ccccn2)CC1)c1cccc([N+](=O)[O-])c1,"inconclusive: 15 µM [inhibitor, partial curve]",
O=C(CCS(=O)(=O)c1cccc2nonc12)Nc1ccc(Br)cc1,"inconclusive: 29.9 µM [inhibitor, single point]",
CCCNC(=O)C1CC(c2ccc(C(F)(F)F)cc2)=NO1 (stereo not given),,inactive: -1.16%
CCOc1ccc(NC(=O)CN2C(=O)COc3ccc(S(=O)(=O)N4CCCCC4)cc32)cc1,active: 26.7 µM,
O=C(CSCc1ccc(F)cc1)Nc1ccc(N2CCOCC2)cc1N1CCOCC1,,inactive: 3.83%
Cc1nn(-c2ccccc2)c2c1C(c1ccc([N+](=O)[O-])cc1)C(C#N)=C(N)O2 (stereo not given),"inconclusive: 21.2 µM [inhibitor, partial curve]",
O=C(COC(=O)CCC(=O)c1cccs1)NCc1ccco1,"inconclusive: 29.9 µM [inhibitor, partial curve]",
O=C(Nc1cccc(F)c1)c1cc(S(=O)(=O)N2CCOCC2)cs1,"inconclusive: 29.9 µM [inhibitor, partial curve]",
S=C(c1ccc(-c2ccc(Br)cc2)o1)N1CCOCC1,"inconclusive: 29.9 µM [inhibitor, partial curve]",
O=C(Nc1ccccc1)c1ccccc1N=Cc1cccc(O)c1,,inactive: -10.2%
CCOc1ccc(CCNC(=O)CCn2ccc3cc(S(=O)(=O)N4CCCC4)ccc32)cc1,"inconclusive: 26.7 µM [inhibitor, partial curve]",
CCC1CCc2c(sc(N)c2C(N)=O)C1 (stereo not given),"inconclusive: 21.2 µM [inhibitor, partial curve]",
CCN1C(=O)/C(=c2\sc3nc(=O)c(Cc4ccccc4)nn3c2=O)c2ccccc21,"inconclusive: 26.7 µM [inhibitor, single point]",
CC(=O)Nc1ccc(C(=O)Nc2cccc(S(=O)(=O)N(C)c3ccccc3)c2)cc1,,inactive: -9.7%
CCCCCCCCn1c(=O)c(C(=O)OCC)c(O)c2ccccc21,"inconclusive: 29.9 µM [inhibitor, partial curve]",
CSc1ccc(/C=C/C(=O)OCC(=O)N2CCN(c3ccccc3)CC2)cc1,"inconclusive: 37.7 µM [inhibitor, single point]",
CC(=O)C1=C(C)NC(SCC(=O)c2ccc(F)cc2)=C(C#N)C1CC(C)C (stereo not given),"inconclusive: 23.8 µM [inhibitor, single point]",
Cn1c(-c2ccc(C=O)s2)nc2c3ccccc3c3ccccc3c21,active: 26.7 µM,
O=S(=O)(Nc1cccc(Cl)c1)c1ccc2oc(=S)[nH]c2c1,active: 33.6 µM,
S=c1[nH]cnc2scc(-c3ccc(Cl)cc3)c12,active: 8.44 µM,
CCCC(=O)OCC(=O)Nc1cc(C(C)(C)C)nn1-c1ccccc1,"inconclusive: 37.7 µM [inhibitor, single point]",
O=C(Nc1cccnc1)Nc1ccc(Br)cc1Cl,,inactive: 4.05%
CCCn1nnc(NC(=O)c2ccc(OCC)c(Cl)c2)n1,,inactive: -3.83%
CC1=C(C)CC(C(=O)Nc2ccc(C(=O)N3CCOCC3)cc2)C(C(=O)O)C1 (stereo not given),active: 21.2 µM,

# In a second layout: two of the compounds above
SMILES	Potency	max response, negative = inhibition
Cc1nn(-c2ccccc2)c2c1C(c1ccc([N+](=O)[O-])cc1)C(C#N)=C(N)O2 (stereo not given)	inconclusive: 21.2 µM [inhibitor, partial curve]	
O=C(COC(=O)CCC(=O)c1cccs1)NCc1ccco1	inconclusive: 29.9 µM [inhibitor, partial curve]	
